Patent US20230203176A1
These are yes or no findings as the source states them, for the method shown. Some results given as binding are weak or reduced against the parent protein; the word gives no strength.

What was measured:
[1] = molecular target: T1, pig CD40 (pig) (UniProt Q8SQ34); assay: flow cytometry on pig PBMCs
T1 sequence (looked up): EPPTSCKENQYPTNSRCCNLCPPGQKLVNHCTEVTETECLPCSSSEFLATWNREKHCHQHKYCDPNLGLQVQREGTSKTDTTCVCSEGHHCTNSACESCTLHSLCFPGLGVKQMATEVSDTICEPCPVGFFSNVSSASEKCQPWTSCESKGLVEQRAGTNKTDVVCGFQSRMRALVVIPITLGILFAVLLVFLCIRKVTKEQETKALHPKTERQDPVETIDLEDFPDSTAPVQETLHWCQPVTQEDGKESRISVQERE

[2] = molecular target: T1, pig CD40 (pig); assay: binding to cells (FIG. 7), compared with 2C10
[3] = molecular target: T1, pig CD40 (pig); assay: flow cytometry on pig PBMCs (FIG. 4 and FIG. 5)
[4] = molecular target: T1, pig CD40 (pig); assay: flow cytometry on pig PBMCs (summary of FIGS. 1-6)
[5] = molecular target: T1, pig CD40 (pig); assay: flow cytometry on pig PBMCs from three pigs (FIG. 4)
[6] = molecular target: T1, pig CD40 (pig); assay: flow cytometry on pig PBMCs from three pigs (FIG. 5)
[7] = molecular target: T1, pig CD40 (pig); assay: flow cytometry with AF488- or AF647-labelled CFZ533 on pig PBMCs
[8] = molecular target: T1, pig CD40 (pig); assay: flow cytometry, CFZ533 and CD21 double stain of pig PBMCs (FIG. 1)

binding [1]: binds | binding [2]: binds | binding [3]: binds | binding [4]: binds | binding [5]: binds | binding [6]: binds | binding [7]: binds | binding [8]: binds
B1: CFZ533 (antibody, human IgG1, kappa, N297A, V domains shown)
VH: QVQLVESGGGVVQPGRSLRLSCAASGFTFSSYGMHWVRQAPGKGLEWVAVISYEESNRYHADSVKGRFTISRDNSKITLYLQMNSLRTEDTAVYYCARDGGIAAPGPDYWGQGTLVTVSS
VL: DIVMTQSPLSLTVTPGEPASISCRSSQSLLYSNGYNYLDWYLQKPGQSPQVLISLGSNRASGVPDRFSGSGSGTDFTLKISRVEAEDVGVYYCMQARQTPFTFGPGTKVDIRR
